Laboratory results: PubChem BioAssay AID1259331 (Drosophila RNAi Screening Center, 2017)

Assay: 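Fly transmembrane-protein genes that affect zinc toxicity in cultured cells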 (primary screen)
System: Drosophila S2R+ cells
Knock-down reagent: long dsRNA against Drosophila genes
Timing: 5 days (4 days knock-down, then 1 day zinc)
Treatment: zinc chloride at 15 mM final level for 1 day
Read-out: 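Total cellular ATP measured by luciferase luminescence as a viability proxy, turned into Z scores from three plate copies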
Reading the numbers: mean Z score: higher = more ATP than other wells, better survival under zinc; ATP luminescence: higher = more ATP, more viable cells
Rule for the call: 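Hit when the absolute Z score is greater than 1.5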
Calls: active = hit, ATP up or down; inactive = not a hit
The deposit covers about 3,100 reagents; shown is a random part of them. In the full data, 126 (4.1%) are marked active. 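Calls are per reagent; zinc was so toxic that few knock-downs lowered ATP further, so most hits raise ATP.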 Raw values are not corrected between plates. Names joined by + are all predicted targets of the reagent. The record does not give: the amount of reagent.

| gene knocked down | dsRNA | mean Z score | ATP luminescence, replicate 1 | ATP luminescence, replicate 2 | Outcome |
| --- | --- | --- | --- | --- | --- |
| CG32669 | DRSC18864 | 0.0476 | 74445 | 74792 | inactive |
| fz | DRSC11348 | 0.109 | 80128 | 64525 | inactive |
| fz | DRSC39155 | 0.00563 | 47240 | 47154 | inactive |
| mAChR-C | DRSC17890 | -0.532 | 55796 | 58694 | inactive |
| mAChR-C | DRSC27441 | 0.252 | 62690 | 59911 | inactive |
| Oatp33Eb | DRSC02955 | -0.55 | 44394 | 41668 | inactive |
| Oatp33Eb | DRSC39667 | -0.412 | 51304 | 54004 | inactive |
| AdoR | DRSC16556 | 3.25 | 1.30e5 | 1.09e5 | active |
| AdoR | DRSC28071 | 0.143 | 60975 | 57768 | inactive |
| Or67c | DRSC11242 | -0.489 | 64525 | 53636 | inactive |
| Or67c | DRSC39762 | -0.0732 | 55110 | 55265 | inactive |

A run of entries from the list above, as a working copy:
| gene knocked down | dsRNA | mean Z score | ATP luminescence, replicate 1 | ATP luminescence, replicate 2 | Outcome |
| --- | --- | --- | --- | --- | --- |
| fz | DRSC39155 | 0.00563 | 47240 | 47154 | inactive |
| mAChR-C | DRSC17890 | -0.532 | 55796 | 58694 | inactive |

Continued:
| gene knocked down | dsRNA | mean Z score | ATP luminescence, replicate 1 | ATP luminescence, replicate 2 | Outcome |
| --- | --- | --- | --- | --- | --- |
| CG8086 | DRSC03078 | 2.13 | 85570 | 87080 | active |
| CG8086 | DRSC03079 | 0.193 | 48653 | 37810 | inactive |
| CG8086 | DRSC27677 | -0.0267 | 59329 | 51441 | inactive |
| Cds + Setx | DRSC27090 | 0.0235 | 59409 | 58145 | inactive |
| Egfr | DRSC03871 | 0.475 | 51321 | 46040 | inactive |
| Egfr | DRSC04613 | -0.603 | 26719 | 27559 | inactive |
| Egfr | DRSC36621 | 0.241 | 52710 | 50669 | inactive |
| Egfr | DRSC36622 | -0.108 | 46571 | 48479 | inactive |
| Chs2 | DRSC11830 | -0.164 | 70767 | 58883 | inactive |
| Chs2 | DRSC39425 | -0.0657 | 50721 | 55522 | inactive |
| Gr63a | DRSC08438 | -0.224 | 74112 | 57191 | inactive |
| senju | DRSC02366 | 0.386 | 54750 | 49057 | inactive |
| senju | DRSC39769 | -0.0856 | 53790 | 56308 | inactive |
| Osi20 | DRSC12568 | -1.31 | 50652 | 40365 | inactive |
| Osi20 | DRSC28630 | -0.506 | 59997 | 47069 | inactive |
| Pis | DRSC20178 | 0.421 | 74867 | 71145 | inactive |
| Pis | DRSC29976 | 0.101 | 49986 | 48064 | inactive |
